Measured values as given in publication PMC9190012, “Heparin activation of protein Z-dependent protease inhibitor (ZPI) allosterically blocks protein Z activation through an extended heparin-binding site” (The Journal of Biological Chemistry, 2022).

B1: WT: recombinant wild-type protein Z-dependent protease inhibitor (serpin A10) expressed in Escherichia coli (protein, UniProt Q9UK55 22-444, looked up)
Protein Z-dependent protease …: LAPSPQSPETPAPQNQTSRVVQAPKEEEEDEQEASEEKASEEEKAWLMASRQQLAKETSNFGFSLLRKISMRHDGNMVFSPFGMSLAMTGLMLGATGPTETQIKRGLHLQALKPTKPGLLPSLFKGLRETLSRNLELGLTQGSFAFIHKDFDVKETFFNLSKRYFDTECVPMNFRNASQAKRLMNHYINKETRGKIPKLFDEINPETKLILVDYILFKGKWLTPFDPVFTEVDTFHLDKYKTIKVPMMYGAGKFASTFDKNFRCHVLKLPYQGNATMLVVLMEKMGDHLALEDYLTTDLVETWLRNMKTRNMEVFFPKFKLDQKYEMHELLRQMGIRRIFSPFADLSELSATGRNLQVSRVLQRTVIEVDERGTEAVAGILSEITAYSMPPVIKVDRPFHFMIYEETSGMLLFLGRVVNPTLL
B2: K260A/R263A/R305A/K308A/R310A: ZPI helix H site quintuple mutant (protein, UniProt Q9UK55 22-444, looked up, variant K260A R263A R305A K308A R310A)
Protein Z-dependent protease …: LAPSPQSPETPAPQNQTSRVVQAPKEEEEDEQEASEEKASEEEKAWLMASRQQLAKETSNFGFSLLRKISMRHDGNMVFSPFGMSLAMTGLMLGATGPTETQIKRGLHLQALKPTKPGLLPSLFKGLRETLSRNLELGLTQGSFAFIHKDFDVKETFFNLSKRYFDTECVPMNFRNASQAKRLMNHYINKETRGKIPKLFDEINPETKLILVDYILFKGKWLTPFDPVFTEVDTFHLDKYKTIKVPMMYGAGKFASTFDANFACHVLKLPYQGNATMLVVLMEKMGDHLALEDYLTTDLVETWLANMATANMEVFFPKFKLDQKYEMHELLRQMGIRRIFSPFADLSELSATGRNLQVSRVLQRTVIEVDERGTEAVAGILSEITAYSMPPVIKVDRPFHFMIYEETSGMLLFLGRVVNPTLL
B3: K104A/R105A/K113A/K116A/K125A/R128A: ZPI mutant of the six basic residues in the helix C/D site (protein, UniProt Q9UK55 22-444, looked up, variant K104A R105A K113A K116A K125A R128A)
Protein Z-dependent protease …: LAPSPQSPETPAPQNQTSRVVQAPKEEEEDEQEASEEKASEEEKAWLMASRQQLAKETSNFGFSLLRKISMRHDGNMVFSPFGMSLAMTGLMLGATGPTETQIAAGLHLQALAPTAPGLLPSLFAGLAETLSRNLELGLTQGSFAFIHKDFDVKETFFNLSKRYFDTECVPMNFRNASQAKRLMNHYINKETRGKIPKLFDEINPETKLILVDYILFKGKWLTPFDPVFTEVDTFHLDKYKTIKVPMMYGAGKFASTFDKNFRCHVLKLPYQGNATMLVVLMEKMGDHLALEDYLTTDLVETWLRNMKTRNMEVFFPKFKLDQKYEMHELLRQMGIRRIFSPFADLSELSATGRNLQVSRVLQRTVIEVDERGTEAVAGILSEITAYSMPPVIKVDRPFHFMIYEETSGMLLFLGRVVNPTLL
B4: K125A/R128A: ZPI mutant of helix D residues (protein, UniProt Q9UK55 22-444, looked up, variant K125A R128A)
Protein Z-dependent protease …: LAPSPQSPETPAPQNQTSRVVQAPKEEEEDEQEASEEKASEEEKAWLMASRQQLAKETSNFGFSLLRKISMRHDGNMVFSPFGMSLAMTGLMLGATGPTETQIKRGLHLQALKPTKPGLLPSLFAGLAETLSRNLELGLTQGSFAFIHKDFDVKETFFNLSKRYFDTECVPMNFRNASQAKRLMNHYINKETRGKIPKLFDEINPETKLILVDYILFKGKWLTPFDPVFTEVDTFHLDKYKTIKVPMMYGAGKFASTFDKNFRCHVLKLPYQGNATMLVVLMEKMGDHLALEDYLTTDLVETWLRNMKTRNMEVFFPKFKLDQKYEMHELLRQMGIRRIFSPFADLSELSATGRNLQVSRVLQRTVIEVDERGTEAVAGILSEITAYSMPPVIKVDRPFHFMIYEETSGMLLFLGRVVNPTLL

What was measured:
[1] = Binding to heparin-Sepharose resin analyzed by SDS-PAGE and immunoblotting; details: 500 nM protein alone, 0.1 M NaCl, pH 7.4
[2] = Salt gradient elution of ZPI variants from HiTrap heparin column; format: binding; details: gradient 0.2 to 0.55 M NaCl, pH 7.4; errors ±0.01 M

Molecule	binding to heparin-Sepharose [1]	NaCl concentration required to elute protein from heparin-Sepharose [2] [M]
PZ: human plasma protein Z, cofactor of ZPI, from Enzyme Research Laboratories	does not bind	–
B1	complete binding	0.41
B2	–	0.38
B3	–	0.26
B4	–	0.38
